Assay results reported in PubChem BioAssay AID1259415 (National Center for Advancing Translational Sciences (NCATS), 2018).
Several values for one entry are separate records, joined by “and”; a condition that tells them apart may be missing. Identical values can stand only once. Among all 410,000 compounds or so, about 18,000 (4.4%) were called active. The inconclusive results got no clear call from the source; some entries with a clear call stand among them for comparison. Cut-off read from the data, not from the text of the source: active = activity change below about -60%; inconclusive = no clear call, values can overlap the other calls; inactive = above about -39%.

Assay: qHTS Assay for inhibitors of the human cytomegalovirus (HCMV)
Details: HFF cells, HCMV-luciferase reporter, 72 h; at 57.5 µM; hits give low values
Method in brief: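 HFF cells seeded 16 h at 37C, treated with compounds, infected with luciferase-reporter HCMV at MOI 1 PFU/cell; luciferase read at 72 h post infection, normalized to buffer-only and Salinomycin controls.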
% is set by controls: 0 for no effect and ±100 for the full control effect.

SMILES | activity change, negative = inhibition
Cc1ccc(NC(=O)c2cnccn2)c(OC(F)F)c1 | inactive: -14%
CN(CCc1ccccn1)C(=S)Nc1ccc(Cl)c(Cl)c1 | inconclusive: -53%
CC1CCN(S(=O)(=O)c2ccc(NC(=O)c3ccncc3)cc2)CC1 | active: -64%
Cc1ccc(OCC(=O)N2CCN(S(=O)(=O)c3ccc4c(c3)OCCO4)CC2)c(C)c1 | inconclusive: -43.8%
Oc1ccc(Nc2nc(-c3ccccc3F)nc3ccccc23)cc1 | inconclusive: -41.2%
CN(Cc1cccc([N+](=O)[O-])c1)Cc1cccc2ccccc12 | inconclusive: -41.9%
Cc1nc2nc(C)c(CCC(=O)NCCCN3CCN(c4cccc(Cl)c4)CC3)c(C)n2n1 | inconclusive: -46%
COc1ccc(C2NC(=O)C(C#N)=C(S)N2c2ccc(C)cc2)cc1OC (stereo not given) | active: -65.1%
CCc1ccc(OCc2nc(-c3ccccn3)no2)c(Br)c1 | inactive: 23.8%
CSc1ccccc1OCc1cc(C(=O)N2C[C@H]3CC[C@H]2C3)no1 | inconclusive: -54.1%
COc1ccc([C@H]2Cc3cc(O)cc(O)c3C(=O)O2)cc1O | active: -102%
Cc1cnc(C(=O)OC(C(=O)Nc2cc(C(F)(F)F)ccc2Cl)c2ccccc2)cn1 (stereo not given) | inactive: -6.03%
Cc1cc(/C=C(/C#N)c2cccc(Cl)c2)c(C)n1C | inconclusive: -55.5%
CCOC(=O)c1cnc(SC)nc1Oc1cccc(NC(=O)c2ccc(Cl)cc2)c1 | inactive: -7.91%
S=C(NCCN(C1CCCCC1)C1CCCC1)Nc1cccc(Cl)c1 | active: -84.6%
COc1ccc(S(=O)(=O)N(C)CC(=O)NCCc2ccccc2)cc1OC | inactive: -16.8%
CCSc1nc(=O)n(-c2ccccc2)c(C)c1C(C)=S | inactive: 16.3%
CC(=O)N1CCC(N(CCN2CCOCC2)C(=S)Nc2cc(C)cc(C)c2)CC1 | inconclusive: -42.5%
COC(=O)Nc1sccc1C(=O)Nc1sccc1C(=O)OC | inconclusive: -47%
COc1ccccc1N(CC(N)=O)S(=O)(=O)c1ccc(C)cc1 | inconclusive: -54.4%
CCC12CN3CC(CC)(CN(C1)C3c1ccc(OCc3ccccc3)cc1)C2=O (stereo not given) | inactive: 14.7%
CCCCCCn1c(CN2CCC(C)CC2)nc2c1c(=O)n(C)c(=O)n2C | inconclusive: -42.5%
CCOC(=O)C(C)Oc1ccc2c(-c3cccc([N+](=O)[O-])c3)cc(=O)oc2c1 (stereo not given) | inactive: 2.3%
CCOC(=O)c1[nH]c2ccc(OC)cc2c1NC(=O)c1ccc2c(c1)OCO2 | inactive: 11.4%
COc1ccccc1NC(=O)N1CCN(c2ncccn2)CC1 | inconclusive: -46.5%
O=C(N/N=C/c1sc(=O)[nH]c1-[n+]1ccc2ccccc2c1)c1ccccc1[O-] | inactive: -4.57%
Cc1ccc(NC(=S)N(CCN2CCOCC2)Cc2ccccc2F)cc1Cl | inconclusive: -41.9%
O=[N+]([O-])c1cccc(CN2[C@@H](Cc3ccccc3)COCCS2(=O)=O)c1 | inconclusive: -53%

SMILES | activity change, negative = inhibition
CC(=O)Nc1ccc(S(=O)(=O)/N=C2\C(=O)c3ccccc3C([O-])=C2n2cc[n+](-c3ccccn3)c2)cc1 | inconclusive: -43.7%
CCC(Sc1nc2ccsc2c(=O)n1Cc1ccc(C(=O)O)cc1)C(=O)Nc1cc(Cl)ccc1C (stereo not given) | active: -94.6%
Cc1cc(-c2ccc(C)c(S(=O)(=O)NCc3ccc(Cl)cc3)c2)on1 | inconclusive: -58.9%
N#Cc1ccccc1NC(=O)CSc1nnc(-c2ccccc2)n1-c1ccccc1 | inconclusive: -47.9%
COc1ccccc1N(CC(=O)NCCSCc1ccc(Cl)cc1)S(C)(=O)=O | inactive: -25% and inactive: -33%
O=C(CSc1ccc2ccccc2c1)Nc1ccncc1 | inconclusive: -44.5%
CCc1c(C2(O)CCCCC2)[nH]c2ncccc12 | inconclusive: -40.4%
O=C(Nc1cc(C(F)(F)F)ccc1Cl)c1ccncc1 | inconclusive: -44.3%
O=C1/C(=C/Nc2ccc3c(c2)OCO3)CCc2ccccc21 | active: -62%
COc1ccc(CN(C)C(=O)c2cccc(Oc3ccccc3)c2)c(OC)c1OC | inconclusive: -55.6%
S=C(NCC1CCCCC1)Nc1ccc(Oc2ccccc2)cc1 | inconclusive: -58.3%
COc1ccc(-c2noc(COc3ccc4c(c3)OCO4)n2)cc1 | inconclusive: -44.8%
Cc1cc(-c2ccccc2)n2ncc(-c3ccccc3)c2n1 | active: -60.5%
CC(C)OCC1CC(CC(=O)Nc2ccc([N+](=O)[O-])cc2)C(=O)O1 (stereo not given) | inconclusive: -54.4%
O=C(c1ccc(S(=O)(=O)N2CCCCCC2)cc1)N(c1ccccn1)C1CCCCC1 | inconclusive: -46.2%
Cc1ccc(OCc2ccc(C#N)cc2)c(C(=O)c2cc(C#N)c(=O)n(C3CC3)c2)c1 | inconclusive: -50%
CCc1c(C)c(C#N)c2nc3ccccc3n2c1NCCN(C)C | inactive: -4.75%
N#CC(C#N)=c1ccc2c(c1)NC1(CCCCC1)N=2 | active: -84.5%
CC(C)NC[C@@H](O)COc1cccc2ccccc12 | inconclusive: -56.9%
O=C(Nc1ccc(C(F)(F)F)cc1)c1cccn(Cc2ccc3c(c2)OC(F)(F)O3)c1=O | active: -97.7%
Cc1ccc(C)c(N2CCN(C(=O)c3ccc4c(Cl)c5c(nc4c3)CCCC5)CC2)c1 | inactive: -39.4%
COc1ccc(NS(=O)(=O)c2cccc(C(=O)N/N=C/c3cn(-c4ccccc4)nc3-c3ccccc3)c2)cc1 | inactive: -21.9%
C/C(=N\N1CCN(C)CC1)c1ccc(OC(F)F)cc1 | inconclusive: -40.4%
CC(=O)Nc1ccc(S(=O)(=O)Nc2cc(C)c(-n3nc4ccccc4n3)cc2O)cc1 | inconclusive: -48%
Cc1cc2ccccn2c1C(=O)c1ccc(NN)c([N+](=O)[O-])c1 | inconclusive: -46.1%
CN(CC(=O)Nc1ccc(N2CCOCC2)cc1)C(=O)C12CC3CC(CC(C3)C1)C2 | inconclusive: -45.4%
O=C1C2CCCN2C(c2ccccc2)N1c1ccc(F)cc1 (stereo not given) | inactive: -23.7%
